Test results published in article PMC9927451.
No constants are given. Whether binding was seen depends on the method and setting. Binding calls can cover weak binding; strength is not graded here. Sequences can lack the tags named with a protein.

B1: PA4465 (YhbJ/RapZ), full length, BACTH fusion (protein, UniProt Q9HVV3 1-286)
chain: MRLIIVSGRSGSGKSTALNVLEDNGFYCIDNLPASLLPDLAQRALLHTELLQPQVAVSIDARNLPSQLQRFPELLQEVRDNHINCDVLYLDADDETLLKRFSETRRRHPLTTDTRSLAEAIGDESQLLGPIADLADLKLDTTSLNLYQLRDTIKLRLLNKPEPGTAFLVESFGFKRGMPVDADLVFDVRCLPNPYWKPELRDHSGLEPEVREYLAAQPDVEEMYQDIVGYLNKWLPRFAASNRSYVTVAIGCTGGHHRSVYLAERIGAALRDSLKNVQIRHRDLSS
B2: MinC (P. aeruginosa), BACTH fusion (protein, UniProt Q9HYZ7 1-263)
chain: MSQADLLDQDPVFQLKGSMLAVTILELAHNDLARLERQLADKVAQAPNFFRDTPLVMALDKLPEGEGRLDLPALLEVCRRHGLRTLAIRAGREEDIAAAQALDLPVLPPSGARERPLDIKDSAPRKPAEEPSPSAGEARPEPAKAEEKPAEPVSRPTKVVKTPVRGGMQIYAAGGDLIVLAAVSPGAELLADGNIHVYGPMRGRALAGVKGDATARIFCQQLAAELVSIAGNYKVAEDLRRSPQWGKAVHVSLSGDVLNITRL
B3: MinD (PA3244), BACTH fusion (protein, UniProt Q9HYZ6 1-271)
chain: MAKILVVTSGKGGVGKTTTSAAIGTGLALRGFKTVIVDFDVGLRNLDLIMGCERRVVYDFVNVVNGEATLTQALIKDKRLENLHVLAASQTRDKDALTKEGVEKVMAELRKDFEYIICDSPAGIEKGAHLAMYFADEAIVVTNPEVSSVRDSDRMLGLLASKSQRAEKGEEPIKEHLLLTRYNPERVTKGEMLGVDDVEEILAIRLLGVIPESQAVLKASNQGVPVILDEQSDAGQAYSDAVDRLLGKEIPHRFLDVQKKGFLQRLFGGRE

Assays:
[1] = target: ParB 37-290, BACTH fusion (P. aeruginosa); test: two-hybrid; bacterial two-hybrid (BACTH): CyaT18 and CyaT25 fusions co-expressed in E. coli BTH101 cya-; MacConkey agar with 1% maltose and 0.15 mM IPTG at 28°C; β-galactosidase activity of cultures grown overnight at 28°C
[2] = target: ParA (P. aeruginosa), BACTH fusion (P. aeruginosa); test: as above

Binder | binding [1] | binding [2]
B1 | binds | –
B2 | – | binds
B3 | – | no binding
